Measurements taken from paper PMC6344599.
No constants are given. Whether binding was seen depends on the method and setting. Binding seen in cells or lysates may run through a third protein. Some entries that bind do so weakly or less than the wild type.

The chains behind the UniProt entries cited, without tags or fusion partners.
UniProt Q8C863: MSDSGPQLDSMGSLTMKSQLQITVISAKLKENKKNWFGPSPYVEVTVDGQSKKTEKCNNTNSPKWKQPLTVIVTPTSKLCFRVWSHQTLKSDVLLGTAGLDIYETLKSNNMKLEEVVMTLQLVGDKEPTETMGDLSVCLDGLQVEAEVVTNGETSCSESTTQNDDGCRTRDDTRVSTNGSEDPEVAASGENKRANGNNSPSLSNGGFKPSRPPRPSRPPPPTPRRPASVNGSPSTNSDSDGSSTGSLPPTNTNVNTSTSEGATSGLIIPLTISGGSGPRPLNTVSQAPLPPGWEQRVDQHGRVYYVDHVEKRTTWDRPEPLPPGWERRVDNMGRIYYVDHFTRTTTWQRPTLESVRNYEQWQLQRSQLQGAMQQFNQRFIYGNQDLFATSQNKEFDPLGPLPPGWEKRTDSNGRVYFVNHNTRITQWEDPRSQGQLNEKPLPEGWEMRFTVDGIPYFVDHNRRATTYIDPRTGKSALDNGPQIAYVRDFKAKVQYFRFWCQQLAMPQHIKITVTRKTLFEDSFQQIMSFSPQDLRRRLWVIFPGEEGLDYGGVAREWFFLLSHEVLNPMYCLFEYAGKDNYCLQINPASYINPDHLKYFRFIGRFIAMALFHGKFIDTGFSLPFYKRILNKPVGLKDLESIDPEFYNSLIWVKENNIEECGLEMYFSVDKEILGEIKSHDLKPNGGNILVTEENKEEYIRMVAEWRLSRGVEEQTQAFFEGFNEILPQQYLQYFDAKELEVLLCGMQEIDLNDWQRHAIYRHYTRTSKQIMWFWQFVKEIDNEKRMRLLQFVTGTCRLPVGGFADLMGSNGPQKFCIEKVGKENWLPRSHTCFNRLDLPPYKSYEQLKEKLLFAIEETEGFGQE
UniProt Q9R1E0: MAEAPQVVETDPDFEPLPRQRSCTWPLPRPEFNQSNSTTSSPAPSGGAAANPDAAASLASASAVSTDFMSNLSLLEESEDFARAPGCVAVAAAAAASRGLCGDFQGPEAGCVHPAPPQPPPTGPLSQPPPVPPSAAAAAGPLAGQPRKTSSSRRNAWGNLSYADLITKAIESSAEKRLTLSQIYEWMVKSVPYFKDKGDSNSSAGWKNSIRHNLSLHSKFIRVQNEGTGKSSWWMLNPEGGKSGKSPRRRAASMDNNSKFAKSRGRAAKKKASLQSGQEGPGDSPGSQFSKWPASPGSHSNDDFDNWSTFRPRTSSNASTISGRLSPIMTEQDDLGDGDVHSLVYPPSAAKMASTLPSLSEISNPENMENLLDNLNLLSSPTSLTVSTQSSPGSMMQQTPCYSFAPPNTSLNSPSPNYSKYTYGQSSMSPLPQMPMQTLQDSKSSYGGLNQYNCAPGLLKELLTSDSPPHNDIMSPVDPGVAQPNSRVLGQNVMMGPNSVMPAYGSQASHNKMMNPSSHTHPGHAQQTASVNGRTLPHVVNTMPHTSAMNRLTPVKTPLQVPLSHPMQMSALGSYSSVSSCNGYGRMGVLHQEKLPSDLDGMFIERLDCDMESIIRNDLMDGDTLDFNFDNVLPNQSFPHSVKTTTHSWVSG

Legend:
[1] = biological target: E3 ubiquitin ligase Itch (mouse (endogenous in splenic B cells of C57BL/6 mice)) (UniProt Q8C863); test: co-IP; cell lysates incubated overnight at 4 °C with antibody, protein A/G magnetic beads, five washes with NP-40 lysis buffer, immunoblot; cells and precipitating antibody told only in Supplementary Figure 2d
[2] = biological target: E3 ubiquitin ligase Itch (mouse (endogenous in splenic B cells of C57BL/6 mice)) (UniProt Q8C863); test: co-IP; lysate of splenic B cells from 7~9-week-old C57BL/6 mice precipitated with anti-Itch antibodies or isotype control IgG, protein A/G magnetic beads, washes with NP-40 lysis buffer, immunoblot

binding [1] | binding [2] | Molecule
binds | – | transcription factor Foxo1 (from UniProt Q9R1E0 1-652)
– | binds | transcription factor JunB (protein, UniProt P09450 1-344) MCTKMEQPFYHDDSYAAAGYGRSPGSLSLHDYKLLKPTLALNLADPYRGLKGPGARGPGPEGSGAGSYFSGQGSDTGASLKLASTELERLIVPNSNGVITTTPTPPGQYFYPRGGGSGGGTGGGVTEEQEGFADGFVKALDDLHKMNHVTPPNVSLGASGGPQAGPGGVYAGPEPPPVYTNLSSYSPASAPSGGSGTAVGTGSSYPTATISYLPHAPPFAGGHPAQLGLSRGASAFKEEPQTVPEARSRDATPPVSPINMEDQERIKVERKRLRNRLAATKCRKRKLERIARLEDKVKTLKAENAGLSSAAGLLREQVAQLKQKVMTHVSNGCQLLLGVKGHAF
